From paper PMC7309463
No constants are given. Whether binding was seen depends on the method and setting. In cells and extracts the contact can be indirect. Some entries that bind do so weakly or less than the wild type.

By UniProt entry, the sequences of proteins in these tests, tags left out.
UniProt O60346: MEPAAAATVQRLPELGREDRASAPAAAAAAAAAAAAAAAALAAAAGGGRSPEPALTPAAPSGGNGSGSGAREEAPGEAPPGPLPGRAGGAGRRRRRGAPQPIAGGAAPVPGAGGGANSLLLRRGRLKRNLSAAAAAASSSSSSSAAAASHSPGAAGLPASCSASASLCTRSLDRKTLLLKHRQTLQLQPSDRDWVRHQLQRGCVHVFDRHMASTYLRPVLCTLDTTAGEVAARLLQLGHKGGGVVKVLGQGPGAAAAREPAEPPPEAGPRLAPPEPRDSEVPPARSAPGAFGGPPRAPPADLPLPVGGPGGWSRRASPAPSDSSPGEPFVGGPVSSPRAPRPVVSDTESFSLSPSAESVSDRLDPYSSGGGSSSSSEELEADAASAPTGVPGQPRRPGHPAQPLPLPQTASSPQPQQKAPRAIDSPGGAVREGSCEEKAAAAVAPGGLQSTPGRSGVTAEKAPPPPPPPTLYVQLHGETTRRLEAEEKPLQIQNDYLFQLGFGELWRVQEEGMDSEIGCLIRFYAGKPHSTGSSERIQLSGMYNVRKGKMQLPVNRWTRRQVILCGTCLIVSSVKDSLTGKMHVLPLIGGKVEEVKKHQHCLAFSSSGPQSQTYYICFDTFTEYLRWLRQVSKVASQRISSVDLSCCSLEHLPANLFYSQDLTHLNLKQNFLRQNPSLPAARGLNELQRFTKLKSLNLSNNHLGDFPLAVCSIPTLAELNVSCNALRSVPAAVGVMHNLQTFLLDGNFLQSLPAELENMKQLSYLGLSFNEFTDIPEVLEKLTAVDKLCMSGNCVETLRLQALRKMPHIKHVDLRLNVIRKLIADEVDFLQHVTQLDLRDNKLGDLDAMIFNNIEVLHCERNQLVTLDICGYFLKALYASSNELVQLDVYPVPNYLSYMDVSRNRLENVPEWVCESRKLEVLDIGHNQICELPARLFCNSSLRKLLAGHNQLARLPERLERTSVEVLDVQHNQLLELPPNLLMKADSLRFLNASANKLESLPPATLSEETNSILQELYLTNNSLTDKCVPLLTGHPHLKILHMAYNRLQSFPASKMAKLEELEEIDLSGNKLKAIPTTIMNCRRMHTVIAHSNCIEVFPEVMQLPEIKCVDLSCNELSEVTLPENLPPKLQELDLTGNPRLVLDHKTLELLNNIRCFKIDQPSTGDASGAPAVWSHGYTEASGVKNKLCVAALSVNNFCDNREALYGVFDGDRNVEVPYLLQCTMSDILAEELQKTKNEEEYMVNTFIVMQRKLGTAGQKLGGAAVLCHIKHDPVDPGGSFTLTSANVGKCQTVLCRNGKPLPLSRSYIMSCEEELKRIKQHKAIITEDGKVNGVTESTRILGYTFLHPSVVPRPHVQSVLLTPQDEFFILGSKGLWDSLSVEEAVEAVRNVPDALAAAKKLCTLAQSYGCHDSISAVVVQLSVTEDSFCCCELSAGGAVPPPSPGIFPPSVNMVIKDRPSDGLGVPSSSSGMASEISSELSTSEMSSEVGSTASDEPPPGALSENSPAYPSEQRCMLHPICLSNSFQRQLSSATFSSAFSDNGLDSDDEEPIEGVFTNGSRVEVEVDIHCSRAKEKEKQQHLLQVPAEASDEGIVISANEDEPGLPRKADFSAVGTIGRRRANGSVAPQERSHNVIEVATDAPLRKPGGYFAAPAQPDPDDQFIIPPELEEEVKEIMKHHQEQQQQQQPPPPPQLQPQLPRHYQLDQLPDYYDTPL

Target: PH-domain leucine-rich-repeat-containing protein phosphatase 1 (PHLPP1) (human (endogenous in RKO)) (UniProt O60346)
Assay: co-IP; parental RKO cells fixed with 0.8% paraformaldehyde/PBS, lysed in IP lysis buffer (50 mM HEPES-KOH pH 7.5, 140 mM NaCl, 0.5% NP-40, 0.25% Triton X-100); 100 ug lysate with 3 ug anti-HSP47 or anti-PHLPP1 antibody overnight at 4 C, protein-L beads; Western blot

- binding: binds
B1: Heat shock protein 47 (HSP47) (protein, UniProt P50454 19-418)
chain: AEVKKPAAAAAPGTAEKLSPKAATLAERSAGLAFSLYQAMAKDQAVENILVSPVVVASSLGLVSLGGKATTASQAKAVLSAEQLRDEEVHAGLGELLRSLSNSTARNVTWKLGSRLYGPSSVSFADDFVRSSKQHYNCEHSKINFRDKRSALQSINEWAAQTTDGKLPEVTKDVERTDGALLVNAMFFKPHWDEKFHHKMVDNRGFMVTRSYTVGVMMMHRTGLYNYYDDEKEKLQIVEMPLAHKLSSLIILMPHHVEPLERLEKLLTKEQLKIWMGKMQKKAVAISLPKGVVEVTHDLQKHLAGLGLTEAIDKNKADLSRMSGKKDLYLASVFHATAFELDTDGNPFDQDIYGREELRSPKLFYADHPFIFLVRDTQSGSLLFIGRLVRPKGDKMRDEL
